Source: PubChem BioAssay AID540276 (National Center for Advancing Translational Sciences (NCATS), 2011)
Screen size: about 300,000 compounds; about 5,400 (1.8%) were called active. This list was built around the results that the source calls inconclusive (neither active nor inactive); the mix of calls is not that of the screen. Calls come from the whole dose curve; tested in HEK293 cells. A potency beside an inconclusive call is a rough fit, not a confirmed value.

Experiment: qHTS for inhibitors of binding or entry into cells for Marburg Virus
Conditions: Marburg virus pseudotyped entry inhibition, cell reporter; activity change, negative = inhibition: at 37.8 µM (top of the series) unless noted
% is set by controls: 0 for no effect and ±100 for the full control effect; potency is the fitted concentration of half-maximal effect.

| Compound | Potency | activity change, negative = inhibition |
| --- | --- | --- |
| CCCS(=O)(=O)NCCc1cc2cc(C)c(C)cc2[nH]c1=O | inconclusive: 3.16 µM [activator, single point] |  |
| COc1ccccc1NC(=O)Cc1nnc(SCC(=O)c2ccc(F)cc2)n1C | inconclusive: 6.31 µM [inhibitor, single point] |  |
| COC1CCC(C2CC(=O)C3=C(CCCC3)O2)CC1 (stereo unspecified) |  | inactive: 44.4% |
| CCOC(=O)c1[nH]c2ccc(OC)cc2c1NC(=O)CCN1CCc2ccccc2C1 | inconclusive: 12.6 µM [inhibitor, partial curve, poor fit] |  |
| CC(OC(=O)c1cccnc1SCc1cc(=O)n2ccccc2n1)c1ccccn1 (stereo unspecified) |  | inactive: 5.74% |
| CCN1C(=O)/C(=C\c2ccco2)C(C(=O)OC)=C1C |  | inactive: -22.1% |
| CCCC(C(=O)Nc1cccc(S(=O)(=O)N2CCCC2)c1)c1ccccc1 (stereo unspecified) | inconclusive: 10 µM [inhibitor, partial curve, poor fit] |  |
| O=[N+]([O-])c1cccc(-c2ccc(C(=S)N3CCN(c4ccccc4)CC3)o2)c1 |  | inactive: -11.2% [at 46.1 µM] |
| Cc1nc(NCCc2cnc[nH]2)c2oc3ccccc3c2n1 |  | inactive: 2.16% |
| CCN(CC)C(=O)c1ccc2c(c1)N(Cc1c(F)cccc1Cl)C(=O)c1ccccc1S2 | inconclusive: 10 µM [inhibitor, partial curve, poor fit] |  |
| CC1(C(=O)OCC(=O)Nc2ccccc2)CC1(Cl)Cl (stereo unspecified) | inconclusive: 5.62 µM [activator, single point] |  |
| COc1cccc(-c2nnc(-c3ccc(C(F)(F)F)cc3)o2)c1OC | inconclusive: 18.3 µM [activator, single point] |  |
| C=CCN(C(=O)CCC(=O)Nc1cc(C)on1)C(C(=O)NC1CCCC1)c1ccc(CC)cc1 (stereo unspecified) | inconclusive: 35.5 µM [inhibitor, single point] |  |
| Cn1c(=O)c2c(nc(NCCc3ccccc3)n2Cc2ccccc2)n(C)c1=O | active: 7.3 µM |  |
| CN(C)CCNc1c(N)c(=O)oc2ccccc12 | inconclusive: 35.5 µM [activator, single point] |  |
| COc1ccc(OC)c(/C=C/C(=O)Nc2ccc3c(c2)CCC3)c1 | inconclusive: 1.26 µM [activator, single point] |  |
| CCOC(=O)CN(C(=O)COc1nc(C)cc(C)c1C#N)c1ccc(F)cc1 | inconclusive: 1 µM [inhibitor, full curve, poor fit] |  |
| COc1cc2[nH]c(=O)n(CCCCCC(=O)N3CC=C(c4ccccc4)CC3)c(=O)c2cc1OC | active: 8.91 µM |  |

| Compound | Potency | activity change, negative = inhibition |
| --- | --- | --- |
| O=C1CC(N2C(=O)/C(=C/C=C/c3ccccc3)SC2=S)C(=O)N1c1ccccc1 (stereo unspecified) | inconclusive: 35.5 µM [inhibitor, single point] |  |
| O=[N+]([O-])c1cc(Br)c(O)c(C=Nc2ccc(N3CCOCC3)cc2)c1 | inconclusive: 28.2 µM [inhibitor, single point] |  |
| C/C(=N\NC(N)=O)c1cccc(Cl)c1 | inconclusive: 4.11 µM [inhibitor, partial curve, poor fit] |  |
| O=C(NC(=S)Nc1ccc2c(c1)OCCO2)c1cccc(Br)c1 | inconclusive: 2.82 µM [activator, partial curve, poor fit] |  |
| C(=C\c1ccco1)/c1ccc2ccccc2n1 | active: 2.82 µM |  |
| CCOC(=O)Cc1c(C)nc2c(-c3ccc(Cl)cc3)c(C)[nH]n2c1=O | inconclusive: 20.6 µM [inhibitor, single point] |  |
| COc1ccccc1Nc1nnc(SCC(=O)NC(=O)Nc2ccc3c(c2)OCCO3)s1 |  | inactive: 15% |
| CC(=O)c1ccc(NC(=O)C2CCN(S(=O)(=O)c3cccc4nonc34)CC2)cc1 |  | inactive: 4.11% [at 46.1 µM] |
| NC(=O)C1CCN(C(=O)COc2cccc3ccccc23)CC1 |  | inactive: 10.8% |
| O=c1cc(Nc2ccc3c(c2)OCCO3)[nH]c(=O)n1-c1ccc(Br)cc1 | inconclusive: 29.1 µM [inhibitor, single point] |  |
| COc1cccc(CN2CCNC(=O)C2CC(=O)NCCc2ccccn2)c1 (stereo unspecified) |  | inactive: 23.8% [at 46.1 µM] |
| COc1ccc(CSC2=NCCN2)cc1Cl | inconclusive: 7.3 µM [inhibitor, partial curve, poor fit] |  |
| COc1cccc(CNC(=O)COC(=O)c2cc([N+](=O)[O-])ccc2N2CCCC2)c1 | inconclusive: 35.5 µM [inhibitor, partial curve, poor fit] |  |
| Cc1ccnc(NC(=O)CC(NC(=O)c2ccccc2Cl)c2ccccc2)c1 (stereo unspecified) |  | inactive: 18.6% |
| O=C1c2[nH]nc(-c3ccc(F)cc3)c2C(c2ccccc2F)N1c1ccccc1 (stereo unspecified) |  | inactive: -16% [at 46.1 µM] |
| CC1CCN(C(=O)C(=O)c2cn(CC(=O)N3CCCCCC3)c3ccccc23)CC1 | inconclusive: 5.62 µM [activator, single point] |  |
| O=C(Nc1ccccc1)N1CCN(c2nc3ccccc3s2)CC1 |  | inactive: 8.77% |
| O=c1c2[nH]c3ccccc3c2nc2n1CCS2 | inconclusive: 1.12 µM [inhibitor, full curve, poor fit] |  |

Given as labelled records: part of the list above
O=C1CC(N2C(=O)/C(=C/C=C/c3ccccc3)SC2=S)C(=O)N1c1ccccc1 (stereo unspecified)
  Potency: inconclusive: 35.5 µM [inhibitor, single point]
O=[N+]([O-])c1cc(Br)c(O)c(C=Nc2ccc(N3CCOCC3)cc2)c1
  Potency: inconclusive: 28.2 µM [inhibitor, single point]
